Paper PMC10645843, “Fungal secondary metabolism is governed by an RNA-binding protein CsdA/RsdA complex” (Nature Communications, 2023)
Results are given in words; binding and its absence hold for the method and conditions named. For some of these results: A result given as binding can be weak or reduced; the word gives no strength. Sequences can lack the tags named with a protein.

T1: RsdA-His (PFICI_10532), recombinant (Pestalotiopsis fici, UniProt W3WX91 1-730)
T1 construct: RsdA, regulator of secondary metabolism and development, Pestalotiopsis fici, locus PFICI_10532; open reading frame amplified from P. fici cDNA; RsdA-His printed as 80.4 kDa; Printed as RsdA-His; vector pET28a (His6-tag); also called PfRsdA; RsdA-His protein; source: E. coli BL21 (plasmid pYZS42, pET28a), purified (Ni-NTA resin)
T1 sequence (looked up): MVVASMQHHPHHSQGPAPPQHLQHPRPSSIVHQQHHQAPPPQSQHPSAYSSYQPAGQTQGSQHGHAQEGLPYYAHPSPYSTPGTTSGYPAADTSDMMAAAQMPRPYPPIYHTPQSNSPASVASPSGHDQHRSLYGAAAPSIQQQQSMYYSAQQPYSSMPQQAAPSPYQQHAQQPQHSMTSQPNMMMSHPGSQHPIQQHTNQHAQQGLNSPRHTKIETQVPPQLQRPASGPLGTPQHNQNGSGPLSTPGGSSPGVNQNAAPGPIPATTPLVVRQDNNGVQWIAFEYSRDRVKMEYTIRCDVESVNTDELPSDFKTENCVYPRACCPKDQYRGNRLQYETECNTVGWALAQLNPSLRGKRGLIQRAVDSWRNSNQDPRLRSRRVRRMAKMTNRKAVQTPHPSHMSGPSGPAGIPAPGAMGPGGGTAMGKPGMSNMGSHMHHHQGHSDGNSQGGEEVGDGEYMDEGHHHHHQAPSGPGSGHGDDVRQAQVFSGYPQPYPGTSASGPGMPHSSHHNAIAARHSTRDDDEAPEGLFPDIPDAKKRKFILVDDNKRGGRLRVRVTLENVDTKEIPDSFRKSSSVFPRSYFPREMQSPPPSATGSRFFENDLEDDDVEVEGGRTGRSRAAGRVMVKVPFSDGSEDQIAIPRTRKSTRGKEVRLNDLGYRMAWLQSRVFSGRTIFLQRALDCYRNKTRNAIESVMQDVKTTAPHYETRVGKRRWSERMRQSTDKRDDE


Assays:
[1] = molecular target: T1, RsdA-His (PFICI_10532), recombinant; assay: pull-down; His pull-down: RsdA-His (or RsdA^ΔC-terminal-His) held on Ni-NTA resin, purified GST-CsdA or its deletion forms added, overnight at 4 °C; binding buffer 50 mM Tris, 250 mM NaCl, 0.2% glycerol, 5 mM DTT, 0.6% Triton X-100, 1 mM PMSF, pH 7.5; wash with 1% Triton X-100; western blot with anti-His and anti-GST; both purified
[2] = molecular target: RsdA^ΔC-terminal-His (Pestalotiopsis fici); assay: as above

| Molecule | binding [1] | binding [2] |
| --- | --- | --- |
| GST-CsdA^ΔZnF (from UniProt W3WSJ8) | binds weakly |  |
| GST-CsdA (PFICI_10709), recombinant (natural protein, Pestalotiopsis fici, UniProt W3WSJ8 1-634, looked up, open reading frame amplified from P. fici cDNA; CsdA said to contain 730 amino acids; GST-CsdA printed as 93.6 kDa; Printed as GST-CsdA; vector pGEX-4T (GST-tag); also called PfCsdA; GST-CsdA protein; source: E. coli BL21 (plasmid pYSZL6, pGEX-4T), purified (GST-tag resin)) MSTVPPQPPHFDRYVVIHVATTCDEHGVYVTKDSAEVIELGWIELDAKSLEELHRESVLVKPINTPITPLCTSLTTLTWEHVRNAGTFRDAINRFDAFASEHLTNQNLDFVFVTLDAWDLRVQLPREARDKAVVLPPYLQHSRTFDLRTEYQRWQQHHPESLPFGPSMLSNICAALEVEPVQSSAPIKHNLPFHLQALAPASPRRAMEEAITLARVLRGLIRKSQPAHEHPDVLTRPMDARADVRAFLSERSKVLHMSGLPHDTTQSELESWFTQFGGRPIAFWTLRTPEQHKPTGTGFAVFSSHEEAAESLCMNGRALNEKAIEVSPSSSRVLDRAAEILTPFPPSKNRPRPGDWTCPSCGFSNFQRRTACFRCSFPAVGAGGPQNEMSSYGGGGGGSGGYGYGAPPMMPPPHHGGHHHHHGGMGHGGGRMGGSGVVPFRAGDWKCGNEVCGYHNFAKNVCCLRCGASRAGAAVVADSGYPSPMDSGSNYGMGSHSVGGTPGPGPYASAGGPFGGAGGGYGQHFGGPPSTYALPSGIGGGAAPYPSALNTHIGGPAPGSHSAGPFDSRAAEAAFQSAGNGPASAGPSNNFFGSQAENDPFAFLSTGIGGLTVSGDARQNGSGAGGPQSKSPAA |  | no binding |

The next lines start with results.

| binding [1] | Molecule | binding [2] |
| --- | --- | --- |
| binds weakly | GST-CsdA^ΔRRM (from UniProt W3WSJ8) |  |
| no binding | GST-CsdA^ΔN-terminal (Pestalotiopsis fici) (domain or fragment) |  |
